Data as given in publication PMC11076383.
No constants are given. Whether binding was seen depends on the method and setting. Binding seen in cells or lysates may run through a third protein. Some results given as binding are weak or reduced against the parent protein; the word gives no strength. Sequences can lack the tags named with a protein.

Target: T1, GST-GLUT2 fusion protein (UniProt P14246)
T1 sequence: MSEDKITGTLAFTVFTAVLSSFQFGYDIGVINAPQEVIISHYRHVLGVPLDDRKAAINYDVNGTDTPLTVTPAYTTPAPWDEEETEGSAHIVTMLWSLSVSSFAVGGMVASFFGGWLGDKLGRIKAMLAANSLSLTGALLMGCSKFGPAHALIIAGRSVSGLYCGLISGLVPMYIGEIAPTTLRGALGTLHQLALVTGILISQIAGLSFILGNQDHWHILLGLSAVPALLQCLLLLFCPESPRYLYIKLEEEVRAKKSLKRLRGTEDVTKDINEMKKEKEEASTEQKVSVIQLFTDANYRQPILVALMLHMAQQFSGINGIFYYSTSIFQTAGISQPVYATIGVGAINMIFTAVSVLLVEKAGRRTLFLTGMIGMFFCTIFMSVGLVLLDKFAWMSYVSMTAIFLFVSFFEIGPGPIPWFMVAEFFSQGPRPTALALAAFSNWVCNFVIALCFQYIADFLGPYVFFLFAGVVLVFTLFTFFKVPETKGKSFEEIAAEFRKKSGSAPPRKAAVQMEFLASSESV
Assay: pull-down; GST pull-down on glutathione-agarose beads; fusion proteins made in E. coli; incubation at 4 °C for 60 min with gentle shaking, 3 washes; detection by chemiluminescence blot

binding: binds
B1: Myc-GnT-IVa fusion protein (GlcNAcT-IVa glycosyltransferase) (enzyme, UniProt Q812G0 1-535)
chain: MRLRNGTVATALVFVTSFLTLSWYTTWQNGKEKLIAYQREFLALKERLRVAEHRISQRSSELNTIVQQFRRAGAETNGSKTALSTISDNTIKLLKELTSKKSLRVPSIYYHLPHLLQNERSLQPAVQIGSGRTGVSIVMGIPTVKREVKSYLVETLHSLIDNLYPEEKLDCVIVVFIGETDLDYVHSVVANLEKEFSREISSGLLEIISPPESYYPDLTNLKETFGDSKERVRWRTKQNLDYCFLMMYAQEKGIYYIQLEDDIIVKQNYFNTIKNFALQLSSEEWMILEFSQLGFIGKMFQAPDLALVVEFILMFYKEKPIDWLLDHILWVKVCNPEKDAKHCDRQKANLRIRFRPSLFQHVGLHSSLSGKIQKLTDKDYMKPLLLKVHVNPPAEVSTSLKVYQGHTLEKTYMGEDFFWAITPTAGDYILFKFDKPVNVESYLFHSGNQEHPGDILLNTTVDVLPLKSDSLEISKETKDKRLEDGYFRIGKFEYGVAEGIVDPGLNPISAFRLSVIQNSAVWAILNEIHIKKVTS
